Results: patent publication US20260183367A1
Results are given in words; binding and its absence hold for the method and conditions named. In cells and extracts the contact can be indirect. Some entries that bind do so weakly or less than the wild type. Tags and fused reporters may be left off the sequences shown.

B1: mCherry-tagged Nup50 aa160-195 (peptide, not shown: large carriers)
chain: LAALNCSVRDWIVKHVNTNPLCDLTPIFKDYEKYLA
B2: mCherry-tagged Nup50 aa165-200 (peptide, not shown: large carriers)
chain: CSVRDWIVKHVNTNPLCDLTPIFKDYEKYLANIEQQ

Biological target: GFP-TDP-43-mNLS (UniProt Q13148)
Experiment: co-immunoprecipitation from HEK293 cells, immunoblot

Binder	binding
B1	binds
B2	binds
